{"source": "the supplement of paper PMC4256282", "about": "“Profound Activity of the Anti-cancer Drug Bortezomib against Echinococcus multilocularis Metacestodes Identifies the Proteasome as a Novel Drug Target for Cestodes” (PLoS Neglected Tropical Diseases, 2014)", "note": "Where a name gives a salt, the structure may show the parent alone. This is one part of the list. Most values come without repeats; read them as rough."}
{"system": "Echinococcus multilocularis metacestodes", "assay": "vesicle damage (PGI release) relative to positive control DB1127 at 20 µM, DMSO subtracted; higher = more parasite damage", "details": "treatment time 5 days", "units": {"vesicle damage": "%"}}
{"smiles": "CC(=O)O[C@H]1CC[C@@]2(C)C(=CC[C@@H]3[C@@H]2CC[C@]2(C)C(c4cccnc4)=CC[C@@H]32)C1", "note": "[Abiraterone Acetate]", "vesicle damage": 3.44}
{"smiles": "C#C[C@]1(O)CC[C@H]2[C@@H]3CCc4cc(OC)ccc4[C@H]3CC[C@@]21C", "note": "[Mestranol]", "vesicle damage": -0.416}
{"smiles": "C[C@]12CC[C@@H]3c4ccc(O)cc4CC[C@H]3[C@@H]1CC[C@@H]2O", "note": "[Estradiol]", "vesicle damage": -8.43}
{"smiles": "C=C1c2cccc(O)c2C(=O)C2=C(O)[C@]3(O)C(=O)C(C(N)=O)=C(O)[C@@H](N(C)C)[C@@H]3[C@@H](O)[C@H]12", "note": "[Methacycline hydrochloride]", "vesicle damage": 5.25}
{"smiles": "O=P(O)(O)C(O)(Cn1ccnc1)P(=O)(O)O", "note": "[Zoledronic Acid]", "vesicle damage": -0.295}
{"smiles": "CC(=O)O[C@]1(C(C)=O)CC[C@H]2[C@@H]3C=C(C)C4=CC(=O)CC[C@]4(C)[C@H]3CC[C@@]21C", "note": "[Megestrol Acetate]", "vesicle damage": -3.12}
{"smiles": "Nc1nc(Cl)nc2c1ncn2[C@@H]1O[C@H](CO)[C@@H](O)[C@@H]1F", "note": "[Clofarabine]", "vesicle damage": -0.038}
{"smiles": "CC(=O)Oc1cc2c(s1)CCN(C(C(=O)C1CC1)c1ccccc1F)C2", "note": "(stereo unspecified) [Prasugrel]", "vesicle damage": 0.513}
{"smiles": "CC1=C(CC(=O)O)c2cc(F)ccc2/C1=C\\c1ccc([S+](C)[O-])cc1", "note": "(stereo unspecified) [Sulindac]", "vesicle damage": 0.946}
{"smiles": "C[C@]12CCC(=O)C=C1CC[C@@H]1[C@@H]2[C@@H](O)C[C@@]2(C)[C@H]1CC[C@]2(O)C(=O)CO", "note": "[Hydrocortisone]", "vesicle damage": -3.97}
{"smiles": "CCOC(=O)C(C)(C)Oc1ccc(Cl)cc1", "note": "[Clofibrate]", "vesicle damage": -13.9}
{"smiles": "CC/C(=C(\\c1ccccc1)c1ccc(OCCN(C)C)cc1)c1ccccc1", "note": "[Tamoxifen Citrate]", "vesicle damage": 43.3}
{"smiles": "COc1cnc(NS(=O)(=O)c2ccc(N)cc2)nc1", "note": "[Sulfameter]", "vesicle damage": -1.36}
{"smiles": "CC(C)NCC(O)c1ccc(NS(C)(=O)=O)cc1", "note": "(stereo unspecified) [Sotalol hydrochloride]", "vesicle damage": 2.87}
{"smiles": "CC(=O)OCC(=O)[C@@]12OC(C)(C)O[C@@H]1C[C@H]1[C@@H]3C[C@H](F)C4=CC(=O)C=C[C@]4(C)[C@@]3(F)[C@@H](O)C[C@@]12C", "note": "[Fluocinonide]", "vesicle damage": 0.694}
{"smiles": "O=c1[nH]c(=O)n([C@H]2C[C@H](O)[C@@H](CO)O2)cc1F", "note": "[Floxuridine]", "vesicle damage": 2.37}
{"smiles": "CCC[C@@H]1C[C@@H](C(=O)N[C@@H]([C@H]2O[C@H](SC)[C@H](O)[C@@H](O)[C@H]2O)[C@H](C)Cl)N(C)C1", "note": "[Clindamycin hydrochloride]", "vesicle damage": -1.13}
{"smiles": "CN/C(=N\\CCSCc1nc[nH]c1C)NC#N", "note": "[Cimetidine]", "vesicle damage": -12.8}
{"smiles": "c1ccc2c(CC3=NCCN3)cccc2c1", "note": "[Naphazoline hydrochloride]", "vesicle damage": -0.83}
{"smiles": "CC(=O)Oc1ccccc1C(=O)Nc1ncc([N+](=O)[O-])s1", "note": "[Nitazoxanide]", "vesicle damage": 61.7}
{"smiles": "CCCCC(=O)O[C@]1(C(=O)CO)[C@@H](C)C[C@H]2[C@@H]3CCC4=CC(=O)C=C[C@]4(C)[C@@]3(F)[C@@H](O)C[C@@]21C", "note": "[Betamethasone valerate]", "vesicle damage": 9}
{"smiles": "CCCc1nc(C)c2c(=O)nc(-c3cc(S(=O)(=O)N4CCN(CC)CC4)ccc3OCC)[nH]n12", "note": "[Vardenafil]", "vesicle damage": 1.96}
{"smiles": "C[N+]1(C)[C@@H]2C[C@@H](OC(=O)C(O)(c3cccs3)c3cccs3)C[C@H]1[C@@H]1O[C@@H]12", "note": "[Tiotropium Bromide hydrate]", "vesicle damage": 0.0453}
{"smiles": "OC[C@H]1OC(O)[C@H](O)[C@@H](O)[C@@H]1O", "note": "(stereo partly specified) [Dextrose]", "vesicle damage": 0.219}
{"smiles": "CC1(C)O[C@@H]2C[C@H]3[C@@H]4CCC5=CC(=O)C=C[C@]5(C)[C@H]4[C@@H](O)C[C@]3(C)[C@]2(C(=O)CO)O1", "note": "[Desonide]", "vesicle damage": -2.03}
{"smiles": "C[C@@H](NCCCc1cccc(C(F)(F)F)c1)c1cccc2ccccc12", "note": "[Cinacalcet hydrochloride]", "vesicle damage": 22.8}
{"smiles": "CC(=O)N1CCN(c2ccc(OCC3COC(Cn4ccnc4)(c4ccc(Cl)cc4Cl)O3)cc2)CC1", "note": "(stereo unspecified) [Ketoconazole]", "vesicle damage": 2.96}
{"smiles": "CCOc1ccccc1OCCN[C@H](C)Cc1ccc(OC)c(S(N)(=O)=O)c1", "note": "[Tamsulosin hydrochloride]", "vesicle damage": 0.712}
{"smiles": "O=C1c2c(O)ccc(O)c2C(=O)c2c(NCCNCCO)ccc(NCCNCCO)c21", "note": "[Mitoxantrone]", "vesicle damage": -0.903}
{"smiles": "NNC(=O)c1ccncc1", "note": "[Isoniazid]", "vesicle damage": 0.0915}
{"smiles": "Cc1cn([C@H]2C=C[C@@H](CO)O2)c(=O)[nH]c1=O", "note": "[Stavudine]", "vesicle damage": -0.0432}
